Assay results from the supplement of paper PMC10849652.
The other results are listed elsewhere or left out.

Chains of the proteins cited; added tags and fusions are not shown. Lines headed by an entry give the natural chain unless they say otherwise; changes in a name come on top.
UniProt Q9BQS7: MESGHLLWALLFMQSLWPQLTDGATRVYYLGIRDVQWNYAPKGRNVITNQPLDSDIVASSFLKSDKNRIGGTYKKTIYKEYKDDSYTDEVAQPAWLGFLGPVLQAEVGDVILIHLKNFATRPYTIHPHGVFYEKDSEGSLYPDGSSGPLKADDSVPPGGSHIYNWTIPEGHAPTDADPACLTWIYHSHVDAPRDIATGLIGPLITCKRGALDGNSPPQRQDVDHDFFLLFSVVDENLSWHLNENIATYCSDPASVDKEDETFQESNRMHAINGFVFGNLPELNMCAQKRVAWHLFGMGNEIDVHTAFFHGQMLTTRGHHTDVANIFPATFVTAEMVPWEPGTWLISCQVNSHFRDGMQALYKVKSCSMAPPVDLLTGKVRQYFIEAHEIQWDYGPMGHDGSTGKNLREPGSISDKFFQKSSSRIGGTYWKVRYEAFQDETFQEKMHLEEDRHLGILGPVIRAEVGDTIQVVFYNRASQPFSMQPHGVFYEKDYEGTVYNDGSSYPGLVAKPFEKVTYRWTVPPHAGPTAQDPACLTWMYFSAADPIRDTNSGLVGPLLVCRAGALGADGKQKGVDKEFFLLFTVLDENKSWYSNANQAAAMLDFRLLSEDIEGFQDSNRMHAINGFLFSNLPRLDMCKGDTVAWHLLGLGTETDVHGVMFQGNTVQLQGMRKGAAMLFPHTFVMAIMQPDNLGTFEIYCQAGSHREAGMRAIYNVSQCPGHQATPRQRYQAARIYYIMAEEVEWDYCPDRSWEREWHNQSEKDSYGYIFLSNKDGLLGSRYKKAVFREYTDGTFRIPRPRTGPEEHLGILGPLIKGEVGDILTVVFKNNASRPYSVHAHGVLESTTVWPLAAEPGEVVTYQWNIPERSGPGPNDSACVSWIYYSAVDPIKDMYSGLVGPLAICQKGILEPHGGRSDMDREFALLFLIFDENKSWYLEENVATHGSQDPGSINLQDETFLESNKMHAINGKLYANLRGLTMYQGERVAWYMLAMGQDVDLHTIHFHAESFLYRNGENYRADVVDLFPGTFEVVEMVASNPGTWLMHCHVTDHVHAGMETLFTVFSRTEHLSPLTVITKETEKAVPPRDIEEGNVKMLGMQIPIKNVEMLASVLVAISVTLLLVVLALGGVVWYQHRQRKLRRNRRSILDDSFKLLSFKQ
UniProt P04921: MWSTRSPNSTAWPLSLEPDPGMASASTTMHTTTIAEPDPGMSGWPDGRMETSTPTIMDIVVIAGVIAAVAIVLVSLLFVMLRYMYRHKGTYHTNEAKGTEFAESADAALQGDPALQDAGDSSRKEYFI
UniProt Q00341: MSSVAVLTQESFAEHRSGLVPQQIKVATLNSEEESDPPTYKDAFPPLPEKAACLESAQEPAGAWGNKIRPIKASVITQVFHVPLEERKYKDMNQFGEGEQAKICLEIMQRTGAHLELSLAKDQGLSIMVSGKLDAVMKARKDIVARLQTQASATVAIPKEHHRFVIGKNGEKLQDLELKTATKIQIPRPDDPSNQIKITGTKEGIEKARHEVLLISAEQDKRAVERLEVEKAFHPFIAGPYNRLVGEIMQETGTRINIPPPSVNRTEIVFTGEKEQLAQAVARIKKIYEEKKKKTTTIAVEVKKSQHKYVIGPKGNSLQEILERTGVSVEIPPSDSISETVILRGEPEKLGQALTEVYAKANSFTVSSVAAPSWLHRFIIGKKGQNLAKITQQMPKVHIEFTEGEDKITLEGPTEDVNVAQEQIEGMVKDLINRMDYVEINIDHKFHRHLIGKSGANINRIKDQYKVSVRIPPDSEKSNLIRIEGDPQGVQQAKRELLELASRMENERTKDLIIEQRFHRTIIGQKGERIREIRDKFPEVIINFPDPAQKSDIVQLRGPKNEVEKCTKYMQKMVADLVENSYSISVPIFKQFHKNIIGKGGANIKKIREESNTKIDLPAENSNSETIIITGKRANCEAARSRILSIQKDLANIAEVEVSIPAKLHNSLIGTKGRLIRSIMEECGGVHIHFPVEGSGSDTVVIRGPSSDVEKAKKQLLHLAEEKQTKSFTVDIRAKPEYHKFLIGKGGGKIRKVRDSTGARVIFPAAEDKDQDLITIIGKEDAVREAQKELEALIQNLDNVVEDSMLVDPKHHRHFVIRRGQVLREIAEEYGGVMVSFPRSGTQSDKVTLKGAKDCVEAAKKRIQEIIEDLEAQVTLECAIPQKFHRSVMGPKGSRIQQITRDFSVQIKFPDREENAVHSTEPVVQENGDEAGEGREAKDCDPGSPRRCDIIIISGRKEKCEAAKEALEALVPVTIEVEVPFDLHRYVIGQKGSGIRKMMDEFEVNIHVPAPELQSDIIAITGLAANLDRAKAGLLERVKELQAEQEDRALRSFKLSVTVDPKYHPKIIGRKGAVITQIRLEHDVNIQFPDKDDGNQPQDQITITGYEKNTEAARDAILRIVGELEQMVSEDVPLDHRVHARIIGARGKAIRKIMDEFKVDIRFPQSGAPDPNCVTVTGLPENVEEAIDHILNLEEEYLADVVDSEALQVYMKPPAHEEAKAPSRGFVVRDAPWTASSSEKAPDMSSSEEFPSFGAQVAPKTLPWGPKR
UniProt Q9NRV9: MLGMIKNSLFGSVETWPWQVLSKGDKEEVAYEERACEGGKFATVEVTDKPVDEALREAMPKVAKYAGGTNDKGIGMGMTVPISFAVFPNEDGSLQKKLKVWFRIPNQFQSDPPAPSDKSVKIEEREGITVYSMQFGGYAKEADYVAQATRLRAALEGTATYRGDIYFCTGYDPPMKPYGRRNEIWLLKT
UniProt A4D1E9: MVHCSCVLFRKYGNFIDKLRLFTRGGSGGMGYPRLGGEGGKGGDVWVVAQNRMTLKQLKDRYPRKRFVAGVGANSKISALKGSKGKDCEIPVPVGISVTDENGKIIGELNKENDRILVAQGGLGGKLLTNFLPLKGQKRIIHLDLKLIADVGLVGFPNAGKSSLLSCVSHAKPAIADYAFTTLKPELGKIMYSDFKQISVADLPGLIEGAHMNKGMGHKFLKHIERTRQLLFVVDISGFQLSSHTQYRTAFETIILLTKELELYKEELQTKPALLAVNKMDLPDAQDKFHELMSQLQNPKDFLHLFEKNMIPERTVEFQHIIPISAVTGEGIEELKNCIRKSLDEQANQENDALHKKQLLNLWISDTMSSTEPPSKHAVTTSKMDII
UniProt P69905, whole entry, looked up: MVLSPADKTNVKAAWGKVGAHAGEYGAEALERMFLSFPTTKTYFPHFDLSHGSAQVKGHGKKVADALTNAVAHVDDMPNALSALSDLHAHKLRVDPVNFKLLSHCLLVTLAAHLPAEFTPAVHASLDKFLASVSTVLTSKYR
UniProt P42694: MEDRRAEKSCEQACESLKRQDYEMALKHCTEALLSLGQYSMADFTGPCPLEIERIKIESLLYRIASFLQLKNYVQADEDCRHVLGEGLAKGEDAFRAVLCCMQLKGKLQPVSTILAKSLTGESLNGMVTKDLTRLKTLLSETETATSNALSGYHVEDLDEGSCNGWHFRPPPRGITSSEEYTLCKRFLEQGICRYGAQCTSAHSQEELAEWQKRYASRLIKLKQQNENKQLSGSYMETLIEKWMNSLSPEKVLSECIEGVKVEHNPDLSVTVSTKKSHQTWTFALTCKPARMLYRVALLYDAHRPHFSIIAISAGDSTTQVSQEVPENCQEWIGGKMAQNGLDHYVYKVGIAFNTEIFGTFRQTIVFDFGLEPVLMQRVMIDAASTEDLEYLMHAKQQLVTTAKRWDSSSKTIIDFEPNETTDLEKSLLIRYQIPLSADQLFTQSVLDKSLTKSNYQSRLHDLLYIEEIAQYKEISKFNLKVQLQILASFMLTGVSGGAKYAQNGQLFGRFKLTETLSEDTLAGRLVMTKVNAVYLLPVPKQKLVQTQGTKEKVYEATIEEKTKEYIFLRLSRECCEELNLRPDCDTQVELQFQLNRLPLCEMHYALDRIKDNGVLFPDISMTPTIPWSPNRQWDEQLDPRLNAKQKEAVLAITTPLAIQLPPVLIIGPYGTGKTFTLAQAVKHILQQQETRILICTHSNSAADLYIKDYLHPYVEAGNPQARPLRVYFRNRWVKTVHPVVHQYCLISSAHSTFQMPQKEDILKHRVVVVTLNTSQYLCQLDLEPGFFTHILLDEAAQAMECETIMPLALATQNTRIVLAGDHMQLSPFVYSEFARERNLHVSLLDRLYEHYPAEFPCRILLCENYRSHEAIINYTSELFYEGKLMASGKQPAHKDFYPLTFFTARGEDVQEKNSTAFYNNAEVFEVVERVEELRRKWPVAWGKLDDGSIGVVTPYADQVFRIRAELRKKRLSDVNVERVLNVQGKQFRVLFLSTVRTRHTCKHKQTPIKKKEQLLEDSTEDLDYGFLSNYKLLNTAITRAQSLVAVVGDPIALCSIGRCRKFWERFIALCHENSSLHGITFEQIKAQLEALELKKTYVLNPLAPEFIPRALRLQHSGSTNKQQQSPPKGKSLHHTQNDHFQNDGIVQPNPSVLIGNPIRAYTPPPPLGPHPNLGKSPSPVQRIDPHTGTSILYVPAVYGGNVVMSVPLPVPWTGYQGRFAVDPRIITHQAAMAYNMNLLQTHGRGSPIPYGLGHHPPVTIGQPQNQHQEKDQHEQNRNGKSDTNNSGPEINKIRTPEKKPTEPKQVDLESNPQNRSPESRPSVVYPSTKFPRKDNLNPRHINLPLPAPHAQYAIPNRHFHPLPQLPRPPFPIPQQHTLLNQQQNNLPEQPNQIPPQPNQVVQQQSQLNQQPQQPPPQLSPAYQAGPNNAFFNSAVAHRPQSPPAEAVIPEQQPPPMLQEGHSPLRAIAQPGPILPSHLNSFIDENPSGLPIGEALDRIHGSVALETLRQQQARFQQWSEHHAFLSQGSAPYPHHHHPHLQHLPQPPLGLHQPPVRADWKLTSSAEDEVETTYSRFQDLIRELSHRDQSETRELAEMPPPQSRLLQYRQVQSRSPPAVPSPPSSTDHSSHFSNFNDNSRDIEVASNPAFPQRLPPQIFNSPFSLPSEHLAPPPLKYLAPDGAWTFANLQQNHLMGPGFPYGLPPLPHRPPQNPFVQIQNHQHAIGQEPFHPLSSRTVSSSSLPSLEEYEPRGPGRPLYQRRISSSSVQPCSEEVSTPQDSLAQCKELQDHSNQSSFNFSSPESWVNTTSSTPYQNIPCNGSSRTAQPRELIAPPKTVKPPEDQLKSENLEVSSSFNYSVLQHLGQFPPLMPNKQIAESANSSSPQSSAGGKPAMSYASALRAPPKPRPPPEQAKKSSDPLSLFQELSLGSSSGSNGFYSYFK
UniProt Q16774: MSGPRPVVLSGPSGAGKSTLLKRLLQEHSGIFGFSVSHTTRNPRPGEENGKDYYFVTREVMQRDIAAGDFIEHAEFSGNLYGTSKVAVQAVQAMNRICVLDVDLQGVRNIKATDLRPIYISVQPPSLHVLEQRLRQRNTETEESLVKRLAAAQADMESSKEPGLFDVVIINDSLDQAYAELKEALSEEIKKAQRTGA
UniProt Q92664: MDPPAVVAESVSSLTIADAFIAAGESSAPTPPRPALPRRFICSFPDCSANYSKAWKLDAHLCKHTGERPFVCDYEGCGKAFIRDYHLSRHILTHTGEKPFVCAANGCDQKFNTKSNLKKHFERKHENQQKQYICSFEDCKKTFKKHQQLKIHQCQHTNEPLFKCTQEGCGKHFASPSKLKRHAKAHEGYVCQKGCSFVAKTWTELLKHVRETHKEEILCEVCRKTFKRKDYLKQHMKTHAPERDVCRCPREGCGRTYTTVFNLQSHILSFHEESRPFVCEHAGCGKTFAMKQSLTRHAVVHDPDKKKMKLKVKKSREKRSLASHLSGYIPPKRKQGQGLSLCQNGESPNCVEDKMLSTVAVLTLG
UniProt P06396, whole entry, looked up: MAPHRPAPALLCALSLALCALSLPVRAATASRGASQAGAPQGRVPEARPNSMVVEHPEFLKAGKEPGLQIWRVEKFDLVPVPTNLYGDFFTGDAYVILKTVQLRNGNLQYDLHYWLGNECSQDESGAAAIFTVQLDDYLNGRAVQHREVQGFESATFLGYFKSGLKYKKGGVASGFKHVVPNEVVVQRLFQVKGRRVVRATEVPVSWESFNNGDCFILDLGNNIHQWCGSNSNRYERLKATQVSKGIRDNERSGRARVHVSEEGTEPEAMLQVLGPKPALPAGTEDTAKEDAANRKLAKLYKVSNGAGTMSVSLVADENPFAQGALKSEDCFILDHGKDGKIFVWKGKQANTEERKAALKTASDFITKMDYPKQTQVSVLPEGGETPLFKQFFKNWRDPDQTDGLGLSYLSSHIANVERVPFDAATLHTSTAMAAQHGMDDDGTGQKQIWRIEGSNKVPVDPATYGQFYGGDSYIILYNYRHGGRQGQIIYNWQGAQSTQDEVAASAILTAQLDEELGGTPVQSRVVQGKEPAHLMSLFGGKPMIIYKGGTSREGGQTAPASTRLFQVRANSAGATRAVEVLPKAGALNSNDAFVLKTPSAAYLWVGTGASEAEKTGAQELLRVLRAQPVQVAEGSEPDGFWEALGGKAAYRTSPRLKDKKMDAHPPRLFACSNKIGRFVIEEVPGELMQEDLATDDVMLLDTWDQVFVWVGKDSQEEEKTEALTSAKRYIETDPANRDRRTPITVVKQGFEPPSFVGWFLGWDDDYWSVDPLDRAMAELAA

What was measured:
Experiment in all cases: log2 fold change, soluble protein after heating vs DMSO (PISA); higher = thermal stabilisation; K562 cells, 10 uM, 30 min; active = over 0.2 and 3.5 SD of the protein, either way, in both replicates (recomputed)
erlotinib = compound: C#Cc1cccc(Nc2ncnc3cc(OCCOC)c(OCCOC)cc23)c1 [erlotinib]
How it was run: (§1)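 For each measurement, 10 μM compound was applied for 30 min to K562 cells at 2×10^6 cells/mL. Aliquots were heated for 3 min across 48°C-58°C, pooled, and extracted in PBS with 0.5% NP-40 at 4°C; the supernatant after 21,000xg for 90 min was soluble protein. This was quantified by TMTpro 16plex LC-MS/MS with channel sums equalised, and thermal stability was reported relative to control samples from duplicates, on a log2 fold-change scale.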

[1] = compound: C/C(=N\NC(=O)C1=CC(=CC=C1)S(=O)(=O)N2CCOCC2)/C3=C(C=CC(=C3)Cl)O
How it was run: as §1

[2] = compound: C1=CC(=C(C=C1Cl)C2=NC3=NC=CN=C3C(=N2)NC4=CC=NC=C4)F
How it was run: as §1

[3] = compound: C1=CC(=CC=C1C2=NC3=C(N2)C=C(C=C3)C(=O)N)OC4=CC=C(C=C4)Cl
How it was run: as §1

[4] = compound: C1=CC2=C(C=CC(=C2)/C=C\3/C(=O)NC(=NCC4=CC=CS4)S3)N=C1
How it was run: as §1

[5] = compound: C1=CC2=NC=CN=C2C=C1/C=C/3\C(=O)NC(=O)S3
How it was run: as §1

[6] = compound: C1=CC=C(C=C1)C2=NC(=C(N2)C3=CC=NC=C3)C4=CC(=C(C=C4)Cl)O
How it was run: as §1

[7] = compound: C1=CC=C2C(=C1)C3=NNC4=CC=CC(=C43)C2=O
How it was run: as §1

[8] = compound: C1CCN(C1)C(=O)NC2=CC=CC(=C2)NC3=NC=C(C(=N3)NCCC4=CN=CN4)Br
How it was run: as §1

[9] = compound: C1CN(CCC1(CC2=CC=C(C=C2)Cl)N)C3=NC=NC4=C3C=CN4
How it was run: as §1

Row | Target | log2 fold change (erlotinib) | log2 fold change [1] | log2 fold change [2] | log2 fold change [3] | log2 fold change [4] | log2 fold change [5] | log2 fold change [6] | log2 fold change [7] | log2 fold change [8] | log2 fold change [9]
1 | GUSB (UniProt P08236) | inactive: 0.09 | inactive: -0.099 | inactive: -0.063 | inactive: 0.165 | inactive: -0.095 | inactive: 0.032 | inactive: 0.009 | inactive: 0.052 | inactive: 0.033 | inactive: -0.002
2 | GYS1 (UniProt P13807) | inactive: -0.022 | inactive: -0.104 | inactive: -0.345 | inactive: -0.066 | inactive: -0.071 | inactive: -0.003 | inactive: -0.14 | inactive: 0.176 | inactive: -0.021 | inactive: -0.069
3 | HBQ1 (UniProt P09105) | inactive: -0.007 | inactive: -0.021 | active: 0.33 | inactive: 0.03 | inactive: 0.059 | inactive: 0.011 | inactive: 0.051 | inactive: -0.021 | inactive: -0.093 | inactive: 0.026
4 | HEPH isoform 3 (UniProt Q9BQS7) | inactive: -0.024 | inactive: -0.049 | inactive: -0.068 | inactive: 0.017 | inactive: 0.019 | inactive: 0.014 | inactive: -0.01 | inactive: -0.068 | inactive: -0.001 | inactive: 0.016
5 | HARS2 (UniProt P49590) | inactive: -0.053 | inactive: -0.004 | inactive: 0.03 | inactive: 0.014 | inactive: 0.003 | inactive: 0.007 | inactive: 0.013 | inactive: -0.037 | inactive: -0.015 | inactive: -0.037
6 | GYPC (UniProt P04921) | inactive: -0.158 | inactive: -0.19 | inactive: 0.064 | inactive: 0.13 | inactive: 0.11 | inactive: 0.03 | inactive: -0.288 | inactive: 0.069 | inactive: -0.093 | inactive: 0.056
7 | HDLBP (UniProt Q00341) | inactive: 0.04 | inactive: -0.018 | inactive: -0.319 | inactive: 0.027 | inactive: 0.016 | inactive: 0 | inactive: -0.031 | inactive: 0.007 | inactive: -0.047 | inactive: -0.19
8 | GSR (UniProt P00390) | inactive: -0.099 | inactive: 0.021 | inactive: 0.071 | inactive: 0.067 | inactive: 0.023 | inactive: 0.007 | inactive: -0.026 | inactive: -0.017 | inactive: 0.011 | inactive: 0.054
9 | HDDC2 (UniProt Q7Z4H3) | inactive: -0.014 | inactive: 0.059 | inactive: 0.039 | inactive: 0.018 | inactive: -0.072 | inactive: 0.034 | active: 0.292 | inactive: 0.024 | inactive: -0.039 | inactive: 0.076
10 | HEBP1 (UniProt Q9NRV9) | inactive: 0.05 | inactive: 0.049 | inactive: 0.037 | inactive: -0.03 | inactive: -0.004 | inactive: -0.096 | inactive: -0.012 | inactive: 0.352 | inactive: 0.041 | inactive: 0.017
11 | GTPBP10 (UniProt A4D1E9) | inactive: 0.077 | inactive: 0.016 | inactive: 0.084 | inactive: -0.018 | inactive: 0.08 | inactive: 0.027 | inactive: -0.018 | inactive: 0.078 | inactive: -0.112 | inactive: -0.097
12 | GTF2A2 (UniProt P52657) | inactive: -0.057 | inactive: 0.048 | inactive: 0.089 | inactive: -0.005 | inactive: 0.132 | inactive: 0.038 | inactive: -0.002 | inactive: -0.02 | inactive: 0.008 | inactive: 0.07
13 | HCCS (UniProt P53701) | inactive: 0.076 | inactive: -0.04 | inactive: 0.033 | inactive: -0.009 | inactive: 0.057 | inactive: -0.018 | inactive: -0.089 | inactive: -0.044 | inactive: 0.096 | inactive: 0.06
14 | HBD (UniProt P02042) | inactive: -0.007 | inactive: 0 | inactive: 0.209 | inactive: 0.008 | inactive: 0.058 | inactive: 0.025 | inactive: 0.108 | inactive: -0.017 | inactive: 0 | inactive: -0.065
15 | HAUS4 (UniProt Q9H6D7) | inactive: -0.112 | inactive: 0.097 | inactive: 0.041 | inactive: -0.095 | inactive: 0.018 | inactive: -0.065 | inactive: -0.085 | inactive: -0.087 | inactive: -0.001 | inactive: 0.001
16 | HDAC2 (UniProt Q92769) | active: 0.757 | inactive: 0.013 | inactive: -0.02 | inactive: -0.012 | inactive: 0.006 | inactive: 0.002 | inactive: -0.011 | inactive: -0.011 | inactive: -0.025 | inactive: 0.023
17 | HBA1 (UniProt P69905) | inactive: -0.058 | inactive: 0.048 | inactive: 0.215 | inactive: 0.063 | inactive: 0.104 | inactive: 0.023 | inactive: 0.123 | inactive: -0.026 | inactive: -0.105 | inactive: 0.031
18 | GTF2F2 (UniProt P13984) | inactive: 0.036 | inactive: 0.027 | inactive: 0.019 | inactive: -0.02 | inactive: 0.026 | inactive: 0.006 | inactive: -0.028 | inactive: 0.005 | inactive: 0.009 | inactive: 0.003
19 | GSTM3 (UniProt P21266) | inactive: 0.029 | inactive: 0.027 | inactive: 0.072 | inactive: -0.029 | inactive: 0.087 | inactive: 0.112 | – | inactive: 0.114 | inactive: -0.046 | inactive: 0.084
20 | HDAC7 isoform 5 (UniProt Q8WUI4) | inactive: 0.025 | inactive: 0.057 | inactive: -0.08 | inactive: 0.007 | inactive: -0.126 | inactive: -0.008 | inactive: -0.037 | inactive: -0.171 | inactive: -0.056 | inactive: 0.025
21 | HEXB (UniProt P07686) | inactive: -0.004 | inactive: 0.002 | inactive: 0.01 | inactive: 0.003 | inactive: -0.002 | inactive: 0.017 | inactive: 0.017 | inactive: -0.01 | inactive: 0.008 | inactive: 0.026
22 | GTF2F1 (UniProt P35269) | inactive: 0.027 | inactive: -0.008 | inactive: 0.028 | inactive: -0.013 | inactive: -0.005 | inactive: -0.009 | inactive: 0.032 | inactive: 0.022 | inactive: 0 | inactive: 0.012
23 | HELZ (UniProt P42694) | inactive: 0.094 | inactive: 0.283 | – | inactive: -0.126 | inactive: 0.068 | inactive: 0.109 | inactive: 0.202 | inactive: -0.047 | – | –
24 | GUK1 isoform 2 (UniProt Q16774) | inactive: 0.009 | inactive: 0.289 | inactive: 0.092 | inactive: 0 | inactive: 0.004 | inactive: 0 | inactive: -0.02 | inactive: 0.021 | inactive: -0.03 | inactive: 0.066
25 | HELQ (UniProt Q8TDG4) | inactive: -0.08 | inactive: -0.065 | inactive: -0.053 | inactive: 0.071 | inactive: 0.069 | inactive: -0.109 | inactive: 0.043 | inactive: 0.024 | inactive: 0.095 | inactive: -0.058
26 | GTF3A (UniProt Q92664) | inactive: -0.048 | inactive: -0.117 | inactive: 0.095 | inactive: 0.116 | inactive: 0.157 | inactive: 0.004 | – | inactive: -0.115 | inactive: -0.019 | inactive: 0.174
27 | GYPA (UniProt P02724) | inactive: -0.057 | inactive: 0.036 | inactive: 0.08 | inactive: 0.035 | inactive: -0.037 | inactive: -0.139 | inactive: -0.11 | inactive: -0.054 | inactive: -0.011 | inactive: 0.098
28 | GSN (UniProt P06396) | inactive: -0.023 | inactive: -0.032 | inactive: 0.051 | inactive: 0.023 | inactive: 0.038 | inactive: -0.014 | inactive: -0.023 | inactive: -0.094 | inactive: 0.028 | inactive: 0.106

As entered above.
log2 fold change (erlotinib) with HCCS (UniProt P53701) is entered as inactive: 0.076
log2 fold change [5] with HBD (UniProt P02042) is entered as inactive: 0.025

Another view of part of the listing above:
Row,Target,log2 fold change (erlotinib),log2 fold change [1],log2 fold change [2],log2 fold change [3],log2 fold change [4],log2 fold change [5],log2 fold change [6],log2 fold change [7],log2 fold change [8],log2 fold change [9]
22,GTF2F1 (UniProt P35269),inactive: 0.027,inactive: -0.008,inactive: 0.028,inactive: -0.013,inactive: -0.005,inactive: -0.009,inactive: 0.032,inactive: 0.022,inactive: 0,inactive: 0.012
23,HELZ (UniProt P42694),inactive: 0.094,inactive: 0.283,–,inactive: -0.126,inactive: 0.068,inactive: 0.109,inactive: 0.202,inactive: -0.047,–,–
